Source: patent US20160046706A1
These are yes or no findings as the source states them, for the method shown. Some binding calls cover weakened binding; strength is not graded here. Where a sequence is shown, tags or fusion partners need not be part of it.

How the values were obtained:
[1] = target: T1, human NRG1-α protein (full length, HA tag at the N-terminus, on NRG1-a/st293T cells) (human) (UniProt Q02297); test: flow cytometry on NRG1-a/st293T cells, antibody at 5 µg/mL
T1 sequence: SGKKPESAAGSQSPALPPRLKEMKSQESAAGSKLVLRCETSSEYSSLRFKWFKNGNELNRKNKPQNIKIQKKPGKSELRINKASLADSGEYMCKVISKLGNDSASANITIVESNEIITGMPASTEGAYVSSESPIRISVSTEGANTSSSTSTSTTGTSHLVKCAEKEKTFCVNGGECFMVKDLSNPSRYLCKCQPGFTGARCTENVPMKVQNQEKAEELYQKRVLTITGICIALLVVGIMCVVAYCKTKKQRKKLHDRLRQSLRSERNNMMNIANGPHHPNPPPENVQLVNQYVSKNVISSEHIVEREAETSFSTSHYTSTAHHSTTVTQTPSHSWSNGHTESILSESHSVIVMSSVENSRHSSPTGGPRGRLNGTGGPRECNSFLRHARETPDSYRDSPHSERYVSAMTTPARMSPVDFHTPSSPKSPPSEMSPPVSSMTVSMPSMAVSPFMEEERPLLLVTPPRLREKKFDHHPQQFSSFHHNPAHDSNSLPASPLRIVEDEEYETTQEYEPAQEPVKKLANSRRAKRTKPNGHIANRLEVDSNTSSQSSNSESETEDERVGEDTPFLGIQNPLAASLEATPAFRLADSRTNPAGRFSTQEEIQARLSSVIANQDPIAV

[2] = target: T1, human NRG1-α protein (full length, HA tag at the N-terminus, on NRG1-a/st293T cells) (human); test: methods of Examples 2 and 3 (flow cytometry on cells, ELISA)
[3] = target: T2, human NRG1-β1 protein (full length, HA tag at the N-terminus, on NRG1-b/st293T cells) (human) (UniProt Q02297); test: flow cytometry on NRG1-b/st293T cells, antibody at 5 µg/mL
T2 sequence: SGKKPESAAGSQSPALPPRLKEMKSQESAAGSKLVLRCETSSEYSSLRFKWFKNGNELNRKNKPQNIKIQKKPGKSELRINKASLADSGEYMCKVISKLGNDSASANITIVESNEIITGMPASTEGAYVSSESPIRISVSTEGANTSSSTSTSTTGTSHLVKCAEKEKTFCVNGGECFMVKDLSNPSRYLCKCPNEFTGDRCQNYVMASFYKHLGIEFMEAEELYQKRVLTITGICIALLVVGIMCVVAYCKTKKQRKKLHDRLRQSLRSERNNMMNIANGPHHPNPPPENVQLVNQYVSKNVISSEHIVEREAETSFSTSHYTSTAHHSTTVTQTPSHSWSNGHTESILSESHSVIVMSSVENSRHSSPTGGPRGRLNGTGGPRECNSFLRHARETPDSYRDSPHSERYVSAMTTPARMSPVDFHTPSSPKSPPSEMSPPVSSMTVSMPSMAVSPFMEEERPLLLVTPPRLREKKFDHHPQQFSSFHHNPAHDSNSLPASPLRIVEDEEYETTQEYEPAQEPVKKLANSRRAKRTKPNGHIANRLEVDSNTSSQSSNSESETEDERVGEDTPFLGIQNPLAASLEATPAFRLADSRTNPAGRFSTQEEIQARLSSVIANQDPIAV

[4] = target: T2, human NRG1-β1 protein (full length, HA tag at the N-terminus, on NRG1-b/st293T cells) (human); test: methods of Examples 2 and 3 (flow cytometry on cells, ELISA)
[5] = target: T1, human NRG1-α protein (full length, HA tag at the N-terminus, on NRG1-a/st293T cells) (human); test: flow cytometry on NRG1-a/st293T cells, antibody at 5 µg/mL and serially diluted (FIGS. 16 and 17)
[6] = target: T2, human NRG1-β1 protein (full length, HA tag at the N-terminus, on NRG1-b/st293T cells) (human); test: flow cytometry on NRG1-b/st293T cells, antibody at 5 µg/mL (FIG. 16)

B1: 8a4 (antibody, mouse IgG1, V domains shown)
VH: EVQLQQSGADLVRPGASVKLSCTASGFNIKDDYIHWVKQRPEQGLEWIGWIDPENGDTEYASQFQGKATITADTSSNTAYLQLRSLTSEDTAVYYCTTSDHRAWFAFWGLGTLVTVSS
VL: DVLMTQTPLSLPVSLGDQASISCRSSQTIVHRNGNTYLEWYLQKPGQSPKLLIYRVSNRFSGVPDRFSGSGSGTDFTLKISRVEAEDLGVYYCFQGSHVPLTFGAGTKL
- binding [1]: binds
- binding [2]: binds

B2: 10bM3 (antibody, mouse IgG1, V domains shown)
VH: EVQLVESGGGLVKPGGSRKLSCAASGFTFSDYGIHWVRQAPEKGLEWLAYISSGSSTIYYADTVKGRFTISRDNAKNTLFLQMTSLRSEDTAMYYCARGSNYVGYYAMDYWGQGTSVTVSS
VL: DIVMTQSPSSLAVTAGEKVTMRCKSSQSLLWSVNQKNYLSWYQQKEGQSPKLLIYGASIRESWVPDRFTGSGSGTDFTLTISNVHAEDLAVYYCQHNHGRFLPLTFGGGTKL
- binding [3]: binds
- binding [4]: binds

B3: 8a4 chimeric antibody (antibody, V domains shown)
VH: EVQLQQSGADLVRPGASVKLSCTASGFNIKDDYIHWVKQRPEQGLEWIGWIDPENGDTEYASQFQGKATITADTSSNTAYLQLRSLTSEDTAVYYCTTSDHRAWFAFWGLGTLVTVSS
VL: DVLMTQTPLSLPVSLGDQASISCRSSQTIVHRNGNTYLEWYLQKPGQSPKLLIYRVSNRFSGVPDRFSGSGSGTDFTLKISRVEAEDLGVYYCFQGSHVPLTFGAGTKL
- binding [5]: binds

B4: 10bM3 chimeric antibody (antibody, V domains shown)
VH: EVQLVESGGGLVKPGGSRKLSCAASGFTFSDYGIHWVRQAPEKGLEWLAYISSGSSTIYYADTVKGRFTISRDNAKNTLFLQMTSLRSEDTAMYYCARGSNYVGYYAMDYWGQGTSVTVSS
VL: DIVMTQSPSSLAVTAGEKVTMRCKSSQSLLWSVNQKNYLSWYQQKEGQSPKLLIYGASIRESWVPDRFTGSGSGTDFTLTISNVHAEDLAVYYCQHNHGRFLPLTFGGGTKL
- binding [6]: binds

B5: 10b2M3 chimeric antibody (antibody, V domains shown)
VH: QVQLQQSGPELVKPGASVKISCKASGYAFSSSWMNWVKQRPGKGLEWIGRIYPGDGDIYYNGKFKGKATLTADKSSSTAYMQLNSLTSEDSAVYFCARTFNYPFFAYWGQGTLVTVSS
VL: DILMTQSPSSLTVSTGEKVTMSCKSSQSLLASANQNNYLAWHQQKPGRSPKMLIIWASTRVSGVPDRFIGSGSGTDFTLTINSVQAEDLAVYYCQQSYSAPTTFGAGTKL
- binding [6]: binds

B6: 10b2M3 (antibody, mouse IgG1, V domains shown)
VH: QVQLQQSGPELVKPGASVKISCKASGYAFSSSWMNWVKQRPGKGLEWIGRIYPGDGDIYYNGKFKGKATLTADKSSSTAYMQLNSLTSEDSAVYFCARTFNYPFFAYWGQGTLVTVSS
VL: DILMTQSPSSLTVSTGEKVTMSCKSSQSLLASANQNNYLAWHQQKPGRSPKMLIIWASTRVSGVPDRFIGSGSGTDFTLTINSVQAEDLAVYYCQQSYSAPTTFGAGTKL
- binding [3]: binds
